Data on 17 compounds can be found in the supplement of paper PMC3682954.

Where a name gives a salt, the structure may show the parent alone. The list shows a part of the results. Repeats are few or missing, and single values can be far off.

For this assay, the system named is RAW 264.7. The experiment in a line: cell viability (MTT) relative to vehicle control; higher = more viable cells. The conditions noted are these: stimulus: HMGB1 5 ug/ml, 18 h.
Where [1] appears, read: compound concentration: 1 ug/ml.

For the compound `CC(=O)Oc1cc(C(C)C)c(OCCN(C)C)cc1C` [Moxisylyte hydrochoride], the cell viability (in general, a read-out of living cells in per cent, often relative to untreated cells) (compound concentration: 3 uM) was determined as 98.4%.

As for `CC(=O)Oc1cc(C(C)C)c(OCCN(C)C)cc1C`, the cell viability (compound concentration: 3 uM) came out at 111%.

On to `CC(=O)Oc1cc(C(C)C)c(OCCN(C)C)cc1C` [Moxisylyte hydrochloride], for which the cell viability (compound concentration: 3 uM) was 103%.

With `O=C(O)c1cc(O)c2c(c1)[C@H]([C@H]1c3cc(C(=O)O)cc(O)c3C(=O)c3c(O[C@@H]4O[C@H](CO)[C@@H](O)[C@H](O)[C@H]4O)cccc31)c1cccc(O[C@@H]3O[C@H](CO)[C@@H](O)[C@H](O)[C@H]3O)c1C2=O`, for the setting “compound concentration: 3 uM”, the cell viability worked out at 112%.

For `Nc1ncnc2c1ncn2[C@@H]1O[C@H](COP(=O)(O)O)[C@@H](O)[C@H]1O`, the cell viability (compound concentration: 3 uM) was found to be 104%.

For the compound `CCC(=O)O[C@H]1[C@H](O[C@@H]2[C@@H](C)[C@H](O[C@H]3C[C@@](C)(OC)[C@@H](O)[C@H](C)O3)[C@@H](C)C(=O)O[C@H](CC)[C@@](C)(O)[C@H](O)[C@@H](C)C(=O)[C@H](C)C[C@@]2(C)O)O[C@H](C)C[C@@H]1N(C)C`, under “compound concentration: 3 uM”, the cell viability came out at 108%.

In the case of `CC1=C(/C=C/C(C)=C/C=C/C(C)=C/C(=O)Nc2ccc(O)cc2)C(C)(C)CCC1` [Fenretinide], under “compound concentration: 3 uM”, the cell viability turned out to be 113%.

Take `CC1=C(/C=C/C(C)=C/C=C/C(C)=C/C(=O)Nc2ccc(O)cc2)C(C)(C)CCC1` [Retinoic acid p-hydroxyanilide]: the cell viability (compound concentration: 3 uM) was 105%.

Take `CC1=C(/C=C/C(C)=C/C=C/C(C)=C/C(=O)Nc2ccc(O)cc2)C(C)(C)CCC1`: under “compound concentration: 3 uM”, the cell viability came to 104%.

Turning to `CC(=O)OCC(=O)[C@@]1(O)CC[C@H]2[C@@H]3CCC4=CC(=O)C=C[C@]4(C)[C@@]3(F)[C@@H](O)C[C@@]21C` [Isoflupredone acetate], the cell viability (compound concentration: 3 uM) is 99.1%.

With `CC(=O)OCC(=O)[C@@]1(O)CC[C@H]2[C@@H]3CCC4=CC(=O)CC[C@]4(C)[C@H]3C(=O)C[C@@]21C`, the cell viability (compound concentration: 3 uM) came to 98.5%.

`CC(=O)OCC(=O)[C@@]1(O)CC[C@H]2[C@@H]3CCC4=CC(=O)CC[C@]4(C)[C@H]3C(=O)C[C@@]21C` [cortisone 21-acetate]: under setting [1], the cell viability came to 107%.

On to `CC(=O)OCC(=O)[C@@]1(O)CC[C@H]2[C@@H]3CCC4=CC(=O)CC[C@]4(C)[C@H]3C(=O)C[C@@]21C` [Cortisone 21-acetate], for which the cell viability (compound concentration: 3 uM) came out at 102%.

`COc1cc(C(=O)N2CCOCC2)cc(OC)c1OC`: under “compound concentration: 3 uM”, the cell viability was found to be 106%.

Regarding `CNCC[C@H](Oc1ccc(C(F)(F)F)cc1)c1ccccc1` [S-(+)-Fluoxetine hydrochloride], the cell viability (compound concentration: 3 uM) is 103%.

With `CCCCC(=O)O[C@]1(C(=O)CO)[C@@H](C)C[C@H]2[C@@H]3CCC4=CC(=O)C=C[C@]4(C)[C@@]3(F)[C@@H](O)C[C@@]21C`, for the setting “compound concentration: 3 uM”, the cell viability turned out to be 119%.

Consider `O=c1cc(-c2ccccc2O)oc2cc(O)cc(O)c12` [5,7,2'-Trihydroxyflavone], for which the cell viability under setting [1] is 79.6%.
